Values quoted from earlier work in patent publication US20210205260A1, “MP53 RESCUE COMPONDS AND METHODS OF TREATING A P53 DISORDER” (priority 2018, published 2021).
Where two headings read alike, the source gives them in different places. For at least one compound, name, drawing or mass did not settle the structure.

Tested on: MDS patients
Details: cited from earlier work
[1] = 14 MDS patients expressing mp53
[2] = 101 MDS patients treated without mp53 selection

Nc1ncn([C@H]2C[C@H](O)[C@@H](CO)O2)c(=O)n1 [DAC, Decitabine]
complete remission duration of responders [1]: 3-14 month | patients who achieved complete remission [1]: 9 patients | complete remission duration of responders [2]: 4-48 month | patients who achieved complete remission [2]: 27 patients
